Among the data in publication PMC8844414 are binding values, retold here.

The chains behind the UniProt entries cited, without tags or fusion partners.
UniProt Q92922: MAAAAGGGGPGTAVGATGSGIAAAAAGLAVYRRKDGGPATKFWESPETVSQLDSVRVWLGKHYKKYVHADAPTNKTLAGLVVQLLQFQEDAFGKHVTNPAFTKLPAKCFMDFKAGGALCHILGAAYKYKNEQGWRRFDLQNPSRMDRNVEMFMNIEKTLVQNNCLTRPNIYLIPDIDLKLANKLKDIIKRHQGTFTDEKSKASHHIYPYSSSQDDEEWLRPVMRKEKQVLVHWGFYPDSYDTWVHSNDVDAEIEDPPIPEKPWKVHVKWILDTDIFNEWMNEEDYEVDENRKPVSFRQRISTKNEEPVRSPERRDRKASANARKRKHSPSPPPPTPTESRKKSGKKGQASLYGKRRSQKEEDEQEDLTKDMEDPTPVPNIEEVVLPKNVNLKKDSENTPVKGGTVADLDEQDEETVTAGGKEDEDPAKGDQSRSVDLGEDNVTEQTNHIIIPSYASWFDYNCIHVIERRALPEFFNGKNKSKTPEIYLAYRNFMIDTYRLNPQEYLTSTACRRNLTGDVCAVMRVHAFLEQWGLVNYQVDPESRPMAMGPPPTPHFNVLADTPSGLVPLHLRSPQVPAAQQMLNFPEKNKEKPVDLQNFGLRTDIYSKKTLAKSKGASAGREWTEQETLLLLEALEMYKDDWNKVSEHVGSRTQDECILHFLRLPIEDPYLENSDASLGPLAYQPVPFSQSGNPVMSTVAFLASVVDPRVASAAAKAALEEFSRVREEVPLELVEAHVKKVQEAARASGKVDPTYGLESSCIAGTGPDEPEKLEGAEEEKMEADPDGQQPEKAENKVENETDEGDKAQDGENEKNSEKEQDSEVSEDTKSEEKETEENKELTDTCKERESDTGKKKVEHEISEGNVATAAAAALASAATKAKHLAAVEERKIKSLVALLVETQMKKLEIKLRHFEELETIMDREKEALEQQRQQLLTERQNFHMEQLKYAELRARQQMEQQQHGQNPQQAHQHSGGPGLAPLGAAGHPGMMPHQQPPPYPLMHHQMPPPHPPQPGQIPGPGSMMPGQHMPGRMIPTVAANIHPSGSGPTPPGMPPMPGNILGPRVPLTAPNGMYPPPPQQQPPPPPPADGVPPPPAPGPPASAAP
UniProt Q969G3: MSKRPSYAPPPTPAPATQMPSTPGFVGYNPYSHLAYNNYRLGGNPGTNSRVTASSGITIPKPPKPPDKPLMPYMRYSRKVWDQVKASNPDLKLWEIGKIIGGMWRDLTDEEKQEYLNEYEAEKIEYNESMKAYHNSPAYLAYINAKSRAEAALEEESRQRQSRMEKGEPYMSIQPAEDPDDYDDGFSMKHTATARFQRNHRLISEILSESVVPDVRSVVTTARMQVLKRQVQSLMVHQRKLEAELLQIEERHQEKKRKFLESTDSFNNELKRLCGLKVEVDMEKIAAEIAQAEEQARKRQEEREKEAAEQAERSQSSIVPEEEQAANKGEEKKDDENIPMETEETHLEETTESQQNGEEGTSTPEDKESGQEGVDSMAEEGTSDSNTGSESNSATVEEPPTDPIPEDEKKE

These are yes or no findings as the source states them, for the method shown. Binding seen in cells or lysates may run through a third protein. Here binding means that the protein was enriched with, or labelled near, the bait; the list need not be complete.

The target in the experiment is T1, FOXP1 (human (HONE1, AGS, C666-1 cells)) (UniProt Q9H334).
T1 sequence: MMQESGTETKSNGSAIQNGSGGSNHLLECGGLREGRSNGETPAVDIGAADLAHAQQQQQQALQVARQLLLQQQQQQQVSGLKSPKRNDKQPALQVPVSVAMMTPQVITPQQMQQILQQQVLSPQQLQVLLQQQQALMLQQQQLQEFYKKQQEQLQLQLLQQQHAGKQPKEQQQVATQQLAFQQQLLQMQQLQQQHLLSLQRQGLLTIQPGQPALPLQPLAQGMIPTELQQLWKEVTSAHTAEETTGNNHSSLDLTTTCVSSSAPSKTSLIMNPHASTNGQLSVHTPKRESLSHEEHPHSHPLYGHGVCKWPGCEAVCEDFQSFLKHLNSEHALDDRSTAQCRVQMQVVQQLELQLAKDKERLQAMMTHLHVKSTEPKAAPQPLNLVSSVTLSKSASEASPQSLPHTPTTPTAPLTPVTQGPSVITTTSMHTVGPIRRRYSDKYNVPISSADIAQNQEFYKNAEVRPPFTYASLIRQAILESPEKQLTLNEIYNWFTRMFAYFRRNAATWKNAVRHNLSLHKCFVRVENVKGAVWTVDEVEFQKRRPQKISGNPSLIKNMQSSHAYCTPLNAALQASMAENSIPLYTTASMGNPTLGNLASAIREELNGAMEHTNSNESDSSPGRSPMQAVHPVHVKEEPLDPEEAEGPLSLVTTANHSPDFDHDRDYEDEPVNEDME
In words: affinity purification with mass spectrometry; Co-IP combined with mass spectrometry for FOXP1; eluates resolved by SDS-PAGE, Coomassie-stained bands that differed from the control excised, trypsin digest, LC-MS/MS (LTQ Orbitrap Velos); cell line not stated.

For SMARCC1 (from UniProt Q92922 1-1105), the binding result was “binds”.

For SMARCE1 (from UniProt Q969G3 1-411), the binding result is “binds”.
